{"sequences": {"note": "Chains of the proteins cited; added tags and fusions are not shown. Residues count along the entry.", "UniProt Q16651, 33-343": "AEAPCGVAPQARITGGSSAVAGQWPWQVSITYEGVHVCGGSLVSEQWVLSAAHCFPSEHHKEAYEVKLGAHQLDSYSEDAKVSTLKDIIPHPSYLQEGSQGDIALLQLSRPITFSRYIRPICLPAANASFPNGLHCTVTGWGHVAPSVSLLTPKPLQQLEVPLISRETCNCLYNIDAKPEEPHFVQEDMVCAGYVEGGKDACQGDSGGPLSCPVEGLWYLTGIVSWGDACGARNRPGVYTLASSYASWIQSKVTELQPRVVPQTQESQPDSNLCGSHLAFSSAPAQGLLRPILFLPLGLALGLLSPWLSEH", "UniProt A0A286XIW9, 1-343": "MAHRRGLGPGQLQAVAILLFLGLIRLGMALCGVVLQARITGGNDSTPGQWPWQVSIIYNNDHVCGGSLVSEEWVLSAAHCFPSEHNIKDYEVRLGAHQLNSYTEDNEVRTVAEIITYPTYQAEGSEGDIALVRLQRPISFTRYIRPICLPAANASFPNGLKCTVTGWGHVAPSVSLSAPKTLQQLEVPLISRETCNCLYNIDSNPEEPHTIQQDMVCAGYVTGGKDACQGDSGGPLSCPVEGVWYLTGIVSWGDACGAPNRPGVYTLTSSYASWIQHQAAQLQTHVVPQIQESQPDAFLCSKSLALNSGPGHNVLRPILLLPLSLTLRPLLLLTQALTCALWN"}, "source": "patent US20120208882A1", "about": "“Organic Compounds” (priority 2005, published 2012)", "key": {"rh-prostasin": {"target": "T1, rh-prostasin (Homo sapiens, UniProt Q16651)", "T1 construct": "made in house", "assay": "Biochemical assay, recombinant human prostasin, fluorescent peptide substrate", "details": "qualitative statement", "description": "(§1) Biochemical assays: Recombinant human prostasin and matriptase and guinea pig prostasin are generated according to methods described in Shipway et al., Biochemical and Biophysical Research Communications 2004; 324(2):953-63). The recombinant enzymes are incubated in an electrolyte buffer test compounds or vehicle in a suitable multiple well assay plate such as a 96 or 384 well plate. At a defined time after the mixing of enzyme with compound. Or vehicle, a suitable fluorescent peptide substrate is added to the assay mixture. As substrate becomes cleaved by the active enzyme; fluorescence (measured using a suitable fluorescence plate reader) increases and the rate of turnover of substrate (i.e. enzyme activity) can be quantified and thus the inhibitory effect of any test compound. The efficacy of test compounds is expressed as the concentration that induces a 50% attenuation in the enzyme activity (Ki). […] Short circuit current (ISC) is then measured by voltage clamping the epithelia to zero millivolts. The amiloride-sensitive ISC is then measured by the addition of amiloride (10 μM) to the apical surface of the epithelia. […] The tracheal potential difference, is then measured using a suitable high impedance voltmeter as described in Takahashi et al., Toxicol Appl Pharmacol. 1995; 131(1):31-6. […]"}, "rh-matriptase": {"target": "T2, rh-matriptase (Homo sapiens, UniProt Q9Y5Y6)", "T2 construct": "made in house", "T2 sequence (Q9Y5Y6 1-855)": "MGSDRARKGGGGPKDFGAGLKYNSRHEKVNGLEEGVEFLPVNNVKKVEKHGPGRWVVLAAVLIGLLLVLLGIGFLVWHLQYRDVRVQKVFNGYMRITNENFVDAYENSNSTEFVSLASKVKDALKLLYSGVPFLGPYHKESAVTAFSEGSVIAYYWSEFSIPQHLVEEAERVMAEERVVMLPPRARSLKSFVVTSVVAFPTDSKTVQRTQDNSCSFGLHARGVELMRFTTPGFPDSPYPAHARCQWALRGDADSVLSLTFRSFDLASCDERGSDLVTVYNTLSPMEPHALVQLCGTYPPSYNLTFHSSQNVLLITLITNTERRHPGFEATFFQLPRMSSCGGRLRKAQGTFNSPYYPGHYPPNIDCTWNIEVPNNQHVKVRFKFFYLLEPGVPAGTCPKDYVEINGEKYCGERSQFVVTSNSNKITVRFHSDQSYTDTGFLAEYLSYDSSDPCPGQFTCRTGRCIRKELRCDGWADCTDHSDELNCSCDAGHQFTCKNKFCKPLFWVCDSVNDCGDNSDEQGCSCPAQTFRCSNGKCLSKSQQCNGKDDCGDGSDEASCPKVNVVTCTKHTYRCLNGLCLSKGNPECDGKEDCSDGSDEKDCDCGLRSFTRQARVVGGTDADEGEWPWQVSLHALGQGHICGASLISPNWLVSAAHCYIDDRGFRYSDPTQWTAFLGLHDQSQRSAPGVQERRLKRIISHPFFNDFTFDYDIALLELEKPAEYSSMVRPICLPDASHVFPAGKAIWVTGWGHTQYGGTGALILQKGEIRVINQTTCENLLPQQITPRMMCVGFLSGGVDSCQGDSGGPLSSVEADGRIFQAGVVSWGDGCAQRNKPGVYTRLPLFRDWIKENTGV", "assay": "Biochemical assay, recombinant human matriptase, fluorescent peptide substrate", "details": "qualitative statement", "description": "as §1"}, "rGPig-prostasin": {"target": "rGPig-prostasin (Cavia porcellus, UniProt A0A286XIW9)", "assay": "Biochemical assay, recombinant guinea pig prostasin, fluorescent peptide substrate", "details": "qualitative statement", "description": "as §1"}, "[1]": {"system": "Human bronchial epithelial cells (amiloride-sensitive, ENaC-mediated short circuit current)", "assay": "Epithelial ion transport: amiloride-sensitive short circuit current in Ussing chambers", "assay_type": "cell-based", "details": "cultured human bronchial epithelial cells; qualitative statement", "description": "as §1"}, "[2]": {"system": "Guinea pig tracheal potential difference", "assay": "Tracheal potential difference (in vivo)", "details": "qualitative statement", "description": "as §1"}}, "note": "Where a name gives a salt, the structure may show the parent alone. At least one compound was matched to its structure with a doubt left.", "data": [{"smiles": "CN(C)C(=O)COC(=O)Cc1ccc(OC(=O)c2ccc(NC(=N)N)cc2)cc1", "note": "[Camostat mesylate, N,N-dimethyl-carbamoylmethyl-p-(p-guanidinobenzoyloxy)phenylacetate]", "values": [{"measurement": "Inhibition of prostasin (human), in words", "setting": "rh-prostasin", "value": "inhibits"}, {"measurement": "Inhibition of matriptase (human), in words", "setting": "rh-matriptase", "value": "inhibits"}, {"measurement": "Inhibition of prostasin (guinea pig), in words", "setting": "rGPig-prostasin", "value": "inhibits"}, {"measurement": "Effect on amiloride-sensitive, ENaC-mediated short circuit current, in words", "setting": "[1]", "value": "attenuates"}, {"measurement": "Effect on tracheal potential difference in the guinea pig, in words", "setting": "[2]", "value": "attenuates"}]}]}
